The subject of one assay is Saos-2. Description: cell viability (CCK-8) relative to DMSO control (% of control); higher = less cytotoxic. The conditions noted are these: 10 µM; 48 h.
The subject of the next assay is U2OS. The assay is described as above. Particulars: 10 µM; 48 h.

Molecules are shown by their SMILES. Structures can show the parent of a compound that is named as a salt. Some of the results follow. Single values are uncertain, as repeats are few or missing.

Among the data in the supplement of paper PMC9433722 are cell viability values, retold here.

Take `CC(=O)Nc1nnc(S(N)(=O)=O)s1` [Acetazolamide]: the cell viability with Saos-2 was found to be 95; in the assay with U2OS, 80.
The corresponding values for `NC(=O)c1ncn([C@@H]2O[C@H](CO)[C@@H](O)[C@H]2O)n1` [Ribavirin] are 66.5 and 118.
The matching figures for `CC(C(=O)O)c1cccc(Oc2ccccc2)c1` (stereo unspecified) [Fenoprofen calcium salt dihydrate]: 69.3 and 100.
The corresponding values for `CN(N=O)C(=O)N[C@@H](C=O)[C@@H](O)[C@H](O)[C@H](O)CO` [Streptozocin] are 102 and 96.9.
As to `Cc1cccc(C)c1OCC(=O)N[C@@H](Cc1ccccc1)[C@@H](O)C[C@H](Cc1ccccc1)NC(=O)[C@H](C(C)C)N1CCCNC1=O` [Lopinavir], the results for the cell viability in the assay on Saos-2 and with U2OS were 112 and 110, respectively.
The corresponding values for `CSc1ccc2c(c1)N(CCC1CCCCN1C)c1ccccc1S2` (stereo unspecified) [Thioridazine·HCl] are 44.6 and 55.
The corresponding values for `CCc1nc(N)nc(N)c1-c1ccc(Cl)cc1` [Pyrimethamine] are 73.2 and 78.5.
The matching figures for `Cc1cn[nH]c1` [Fomepizole]: 112 and 104.
For `CCCN1CCCC[C@H]1C(=O)Nc1c(C)cccc1C` [Ropivacaine·HCl Monohydrate], the cell viability in the assay on Saos-2 is 108; in the assay on U2OS, 96.6.
With `CCOC(=O)C1=C(COCCN)NC(C)=C(C(=O)OC)C1c1ccccc1Cl` (stereo unspecified) [Amlodipine], the cell viability in the assay with Saos-2 amounted to 55.3; in the assay with U2OS it was 111.
Consider `CC(=O)OCC(=O)[C@@]12OC3(CCCC3)O[C@@H]1C[C@H]1[C@@H]3CCC4=CC(=O)C=C[C@]4(C)[C@@]3(F)[C@@H](O)C[C@@]12C` [Amcinonide], for which the cell viability stood at 120 with Saos-2 and 98.1 in the assay with U2OS.
The corresponding values for `C#CCN[C@@H]1CCc2ccccc21` [Rasagiline Mesylate] are 108 and 95.6.
The matching figures for `CN(C)CC[C@@H](c1ccc(Cl)cc1)c1ccccn1` [Dexchlorpheniramine Maleate]: 112 and 105.
As for `O=NN(CCCl)C(=O)NCCCl` [Carmustine], the figures for the cell viability in the assay with Saos-2 and with U2OS were 110 and 101, respectively.
The corresponding values for `Clc1ccc(COC(Cn2ccnc2)c2ccc(Cl)cc2Cl)cc1` (stereo unspecified) [Econazole Nitrate] are 129 and 107.
The corresponding values for `COCC1=C(C(=O)OC(C)OC(=O)OC(C)C)N2C(=O)[C@@H](NC(=O)/C(=N\OC)c3csc(N)n3)[C@H]2SC1` (stereo partly specified) [Cefpodoxime Proxetil] are 115 and 92.1.
The corresponding values for `CC1=C(/C=C/C(C)=C/C=C/C(C)=C/C(=O)O)C(C)(C)CCC1` [Tretinoin] are 94.4 and 87.2.
Take `CC1(C)O[C@@H]2C[C@H]3[C@@H]4C[C@H](F)C5=CC(=O)C=C[C@]5(C)[C@H]4[C@@H](O)C[C@]3(C)[C@]2(C(=O)CO)O1` [Flunisolide]: the cell viability amounted to 98.8 with Saos-2 and 109 in the assay with U2OS.
For the molecule `CC(C)NCC(O)c1ccc(O)c(O)c1` (racemic) [(±) Isoproterenol·HCl], the values for the cell viability in the assay with Saos-2 and with U2OS were 59.5 and 113, respectively.
The corresponding values for `COc1cc2nc(N3CCN(C(=O)C4COc5ccccc5O4)CC3)nc(N)c2cc1OC` (stereo unspecified) [Doxazosin Mesylate] are 65.6 and 103.
As for `CC(C)(C)NC(=O)[C@@H]1CN(Cc2cccnc2)CCN1C[C@@H](O)C[C@@H](Cc1ccccc1)C(=O)N[C@H]1c2ccccc2C[C@H]1O` [Indinavir], the figures for the cell viability with Saos-2 and with U2OS were 111 and 96.7, respectively.
The matching figures for `Nc1ncn([C@H]2C[C@H](O)[C@@H](CO)O2)c(=O)n1` [Decitabine]: 70.5 and 88.4.
For the molecule `CNC(C)C1CCC(N)C(OC2C(N)CC(N)C(OC3OCC(C)(O)C(NC)C3O)C2O)O1` (stereo unspecified) [Gentamycin Sulfate], the cell viability in the assay on Saos-2 worked out at 67; with U2OS it was 95.9.
On to `CC(CN1c2ccccc2Sc2ccccc21)N(C)C` (stereo unspecified) [Promethazine·HCl], for which the cell viability in the assay with Saos-2 turned out to be 66.3; in the assay on U2OS it was 97.2.
The matching figures for `COc1cc2nc(N3CCN(C(=O)C4CCCO4)CC3)nc(N)c2cc1OC` (stereo unspecified) [Terazosin·HCl]: 62.6 and 106.
The matching figures for `COc1ccc(CC(C)NCC(O)c2ccc(O)c(NC=O)c2)cc1` (stereo unspecified) [Formoterol]: 104 and 102.
The corresponding values for `CN1CCN(C2=Nc3cc(Cl)ccc3Nc3ccccc32)CC1` [Clozapine] are 63.4 and 110.
As for `CN(C)CCc1c[nH]c2ccc(C[C@H]3COC(=O)N3)cc12` [Zolmitriptan], the values for the cell viability with Saos-2 and in the assay with U2OS were 60.5 and 115, respectively.
The corresponding values for `OCCN1CCN(CCCN2c3ccccc3Sc3ccc(C(F)(F)F)cc32)CC1` [Fluphenazine dihydrochloride] are 52.6 and 95.3.
The matching figures for `C=C[C@H]1CN2CC[C@H]1C[C@H]2[C@H](O)c1ccnc2ccc(OC)cc12` [Quinine hydrochloride dihydrate]: 60.6 and 132.
On to `CNCCCN1c2ccccc2CCc2ccccc21` [Desipramine·HCl], for which the cell viability in the assay with Saos-2 stood at 103; with U2OS, 111.
As for `Cc1cc2c(s1)Nc1ccccc1N=C2N1CCN(C)CC1` [Olanzapine], the cell viability in the assay with Saos-2 was 54.4; in the assay on U2OS, 98.7.
For `CC[C@H]1OC(=O)[C@H](C)[C@@H](O[C@H]2C[C@@](C)(OC)[C@@H](O)[C@H](C)O2)[C@H](C)[C@@H](O[C@@H]2O[C@H](C)C[C@H](N(C)C)[C@H]2O)[C@](C)(O)C[C@@H](C)C(=O)[C@H](C)[C@@H](O)[C@]1(C)O` [Erythromycin], the cell viability with Saos-2 came to 103; with U2OS, 80.8.
